From article PMC4322968
Results are given in words; binding and its absence hold for the method and conditions named. In cells and extracts the contact can be indirect. Some binding calls cover weakened binding; strength is not graded here. For some of these results: Sequences can lack the tags named with a protein.

Sequences of proteins named here, by UniProt entry; tags and fusion partners are left off.
UniProt P10275: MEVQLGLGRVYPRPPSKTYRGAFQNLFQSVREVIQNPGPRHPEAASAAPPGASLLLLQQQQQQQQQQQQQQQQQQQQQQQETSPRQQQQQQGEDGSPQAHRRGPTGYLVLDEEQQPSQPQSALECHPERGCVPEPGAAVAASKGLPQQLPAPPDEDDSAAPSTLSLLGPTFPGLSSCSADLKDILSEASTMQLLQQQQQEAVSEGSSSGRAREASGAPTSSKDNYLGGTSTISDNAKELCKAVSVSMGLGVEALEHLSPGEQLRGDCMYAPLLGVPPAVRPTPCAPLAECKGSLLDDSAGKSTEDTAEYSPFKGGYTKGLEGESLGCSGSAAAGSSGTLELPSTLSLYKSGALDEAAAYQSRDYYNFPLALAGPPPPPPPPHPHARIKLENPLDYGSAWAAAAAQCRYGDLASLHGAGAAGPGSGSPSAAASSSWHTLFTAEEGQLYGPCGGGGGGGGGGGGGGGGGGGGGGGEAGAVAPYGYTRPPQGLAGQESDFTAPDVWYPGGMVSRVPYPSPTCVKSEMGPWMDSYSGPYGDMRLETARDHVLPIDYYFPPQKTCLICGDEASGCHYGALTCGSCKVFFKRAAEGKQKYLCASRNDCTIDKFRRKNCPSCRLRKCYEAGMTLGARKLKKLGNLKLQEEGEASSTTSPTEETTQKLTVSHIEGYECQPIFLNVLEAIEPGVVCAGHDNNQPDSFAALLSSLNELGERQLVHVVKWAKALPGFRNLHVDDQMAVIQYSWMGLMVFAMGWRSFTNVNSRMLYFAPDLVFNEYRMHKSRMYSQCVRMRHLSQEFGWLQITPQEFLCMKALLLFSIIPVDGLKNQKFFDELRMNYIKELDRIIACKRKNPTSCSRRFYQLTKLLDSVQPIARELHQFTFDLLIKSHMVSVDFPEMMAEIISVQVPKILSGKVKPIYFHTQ

Legend:
[1] = target: T1, FK506-binding protein 5 (FKBP5) (human (endogenous in SKOV3/Tx600)) (UniProt Q13451); assay: condition: only after stimulation of the cells with DHT; co-IP; 500 ug of SKOV3/Tx600 (txr) cell extracts immunoprecipitated with antibody against FKBP5 or IgG as control; cells treated with DHT for the indicated time period (activated AR)
T1 sequence: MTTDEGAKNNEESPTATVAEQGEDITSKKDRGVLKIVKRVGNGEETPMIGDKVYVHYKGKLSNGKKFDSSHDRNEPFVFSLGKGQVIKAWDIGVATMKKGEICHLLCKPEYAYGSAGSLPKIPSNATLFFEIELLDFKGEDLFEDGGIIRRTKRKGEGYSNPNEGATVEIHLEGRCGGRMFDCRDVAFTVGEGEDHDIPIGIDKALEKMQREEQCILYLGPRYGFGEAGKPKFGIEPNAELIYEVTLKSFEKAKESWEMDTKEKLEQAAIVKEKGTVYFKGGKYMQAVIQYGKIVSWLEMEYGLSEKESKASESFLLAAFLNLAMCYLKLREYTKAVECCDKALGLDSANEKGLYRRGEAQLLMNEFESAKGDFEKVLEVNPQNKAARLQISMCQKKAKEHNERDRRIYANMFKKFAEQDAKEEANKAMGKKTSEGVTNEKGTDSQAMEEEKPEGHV

[2] = target: T1, FK506-binding protein 5 (FKBP5) (human (endogenous in SKOV3/Tx600)); assay: co-IP; 500 ug of SKOV3/Tx600 (txr) cell extracts immunoprecipitated with antibody against FKBP5 or IgG as control; cells without DHT (inactivated AR)
[3] = target: T2, Flag-FKBP5 (UniProt Q13451); assay: condition: only after stimulation of the cells with DHT; co-IP; HEK293T cells transfected with AR and FKBP5 plasmids; performed as in Fig. 4C (immunoprecipitation with antibody against FKBP5 or IgG); cells treated with DHT (activated AR)
T2 sequence: T1 sequence

[4] = target: T2, Flag-FKBP5; assay: co-IP; HEK293T cells transfected with AR and FKBP5 plasmids; performed as in Fig. 4C (immunoprecipitation with antibody against FKBP5 or IgG); cells without DHT

| binding [1] | binding [2] | binding [3] | binding [4] | Substance |
| --- | --- | --- | --- | --- |
| no binding | binds |  |  | androgen receptor (AR) (from UniProt P10275 1-920) |
|  |  | no binding | binds | androgen receptor (AR) expressed from pSG5-AR (from UniProt P10275 1-920) |
